These are yes or no findings as the source states them, for the method shown. Binding seen in cells or lysates may run through a third protein. Some results given as binding are weak or reduced against the parent protein; the word gives no strength.
Legend:
[1] = molecular target: Golgi phosphoprotein 3 (GOLPH3), endogenous (human (endogenous in A549 and NCI-H460)) (UniProt Q9H4A6); assay: co-IP; endogenous proteins in A549 and NCI-H460 cells; precipitating antibody not told
[2] = molecular target: SFB-GOLPH3 (Golgi phosphoprotein 3) (human) (UniProt Q9H4A6); assay: proximity ligation; A549 and NCI-H460 cells transfected with SFB-Vector or SFB-GOLPH3, fixed and permeabilised; mouse anti-FLAG and rabbit anti-CKAP4, Duolink kit
[3] = molecular target: Golgi phosphoprotein 3 (GOLPH3), endogenous (human (endogenous in A549 and NCI-H460)) (UniProt Q9H4A6); assay: proximity ligation; endogenous proteins in fixed, permeabilised A549 and NCI-H460 cells; mouse anti-GOLPH3 and rabbit anti-CKAP4, Duolink kit
[4] = molecular target: SFB-GOLPH3 (Golgi phosphoprotein 3) (human) (UniProt Q9H4A6); assay: co-IP; A549 and NCI-H460 cells transiently transfected with SFB-vector or SFB-GOLPH3; lysate in IP lysis buffer, anti-FLAG antibody-cross-linked protein G-agarose beads overnight at 4 °C, six washes, western blot
[5] = molecular target: WNT3A, exosomal (human (endogenous in NSCLC cell lines)) (UniProt P56704); assay: co-IP; in exosomes derived from GOLPH3-overexpressing cells; precipitating antibody not told

Sequences of proteins named here, by UniProt entry; tags and fusion partners are left off. Residues count along the entry.
UniProt Q9H4A6: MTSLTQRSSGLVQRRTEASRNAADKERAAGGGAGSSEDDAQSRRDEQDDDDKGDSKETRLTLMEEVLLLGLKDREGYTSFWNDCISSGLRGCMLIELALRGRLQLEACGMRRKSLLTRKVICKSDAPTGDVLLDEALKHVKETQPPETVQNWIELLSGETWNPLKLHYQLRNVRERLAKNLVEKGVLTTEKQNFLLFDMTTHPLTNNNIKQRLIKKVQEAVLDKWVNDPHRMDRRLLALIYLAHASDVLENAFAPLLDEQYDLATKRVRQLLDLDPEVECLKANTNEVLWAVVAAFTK
UniProt P56704, residues 19-352: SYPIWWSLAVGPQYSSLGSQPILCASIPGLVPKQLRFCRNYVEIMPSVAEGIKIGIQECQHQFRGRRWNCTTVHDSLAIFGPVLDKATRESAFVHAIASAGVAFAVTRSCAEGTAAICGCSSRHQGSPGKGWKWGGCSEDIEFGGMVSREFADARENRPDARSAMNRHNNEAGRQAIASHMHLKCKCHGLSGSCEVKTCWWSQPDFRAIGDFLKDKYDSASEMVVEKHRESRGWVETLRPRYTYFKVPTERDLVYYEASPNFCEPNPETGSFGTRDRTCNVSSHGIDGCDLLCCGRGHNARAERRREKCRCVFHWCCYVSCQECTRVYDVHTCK
UniProt Q07065: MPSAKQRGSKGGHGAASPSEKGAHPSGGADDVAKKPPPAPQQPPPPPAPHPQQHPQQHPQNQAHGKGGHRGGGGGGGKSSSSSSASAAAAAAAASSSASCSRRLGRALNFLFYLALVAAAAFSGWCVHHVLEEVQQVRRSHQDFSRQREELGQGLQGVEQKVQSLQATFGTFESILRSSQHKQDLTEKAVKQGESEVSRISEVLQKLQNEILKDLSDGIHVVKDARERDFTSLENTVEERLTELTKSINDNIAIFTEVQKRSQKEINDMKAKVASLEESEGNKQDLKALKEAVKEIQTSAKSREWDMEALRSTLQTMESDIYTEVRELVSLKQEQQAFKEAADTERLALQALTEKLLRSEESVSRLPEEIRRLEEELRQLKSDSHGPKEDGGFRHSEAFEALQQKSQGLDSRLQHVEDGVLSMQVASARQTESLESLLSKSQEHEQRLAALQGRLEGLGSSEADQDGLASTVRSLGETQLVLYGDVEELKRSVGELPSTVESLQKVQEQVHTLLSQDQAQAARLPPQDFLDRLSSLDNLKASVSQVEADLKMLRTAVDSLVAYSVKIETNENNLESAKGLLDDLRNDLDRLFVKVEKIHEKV

Measured: binding

cytoskeleton-associated protein 4 (CKAP4), endogenous (from UniProt Q07065 1-602)
binds: all assays above
